PubChem BioAssay AID504784 – Drosophila RNAi Screening Center | 2011

Assay: 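Search for regulators of lipid droplet storage in oleate-fed fly cells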 (primary screen)
Cells: Drosophila Kc167 embryonic cells
Knock-down reagent: long dsRNA against Drosophila genes, about 250 ng dsRNA per well
Timing: 4 days
Challenge: cells fed 400 µM oleic acid bound to BSA
Detection: 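Cells imaged and segmented; ratio of lipid droplet area to nuclear area, log-transformed, then normalised as a B-score over the screen; higher means more stored lipid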
Reading the numbers: droplet/nuclear area B-score: higher = more stored lipid (overstorage)
The screen tested about 17,000 reagents; below is an unselected part of those that have a named target and a result. 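Each column is one replicate's B-score; the combined score over replicates was not deposited, so single values may mislead.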 Reagents against one gene are numbered here. A plus sign joins genes that one reagent is predicted to hit. Reagent sequences are not shown.

Gene,reagent,"droplet/nuclear area B-score, replicate 1","droplet/nuclear area B-score, replicate 2","droplet/nuclear area B-score, replicate 3"
He + NimB5,1,-0.96,-0.475,
Adi1,1,0.953,0.459,
Adi1,2,0.669,0.267,
egg,1,0.362,1.04,
egg,2,0.77,1.84,
Ccz1,1,0.206,-0.0199,
CG15082,1,-0.0481,1.08,
CG32069 + Blos2,1,-0.515,-1.97,
nero,1,-0.157,-0.688,
CG8008,1,-1.61,0.354,
mRpS26,1,0.353,1.72,
sbr,1,-0.284,-2.67,-0.367
sbr,2,1.19,1.78,-0.0182
Klp64D,1,-1.23,-1.53,
CG13081,1,0.373,-0.872,
CG13008,1,2.13,1.14,
CG13008,2,0.624,0.00311,
OdsH,1,1.25,-2.61,
CG2698,1,0.647,2.96,
Alh,1,-1.34,-1.67,
Alh,2,-1.46,-0.209,
Alh,3,0.101,-0.6,
CG31517,1,0.385,0.782,
Ccp84Ad,1,-1.36,-0.0259,0.015
Ccp84Ad,2,-0.815,-1.46,
Fit2,1,0.0237,0.0429,0.587
CG14006,1,0.229,-1.89,
CG31419,1,0.481,0.455,
cpx,1,-0.0705,0.0687,
CG6414,1,,0.539,
SdhCL,1,-1.26,-1.85,
Kmn1,1,0.754,-0.812,0.143
TyrRS-m,1,1,-0.23,
Rbbp5,1,-0.557,-1.4,
metro,1,-1.72,,
metro,2,-1.01,1.54,
Pis,1,1.4,0.546,
w,1,-0.0819,-0.0973,
CG31624,1,0.0431,1.86,
CG7101,1,-0.00383,-0.1,
CG7101,2,-0.357,-0.926,
Alas,1,0.0577,0.23,
ogre,1,-0.422,-0.191,-1.53
brv3,1,0.205,-0.548,
FMRFaR,1,0.379,1.73,
CG5043,1,-1.15,-0.0723,
Muc55B,1,-0.338,0.177,
Mo25,1,1.33,-0.287,0.523
TTLL6A,1,0.701,0.164,
Ibf1,1,0.883,1.9,
eIF3d2,1,0.166,-1.33,
CG10137,1,-1.96,-2.35,
CG10137,2,0.00239,0.502,
mthl11,1,0.506,-0.0762,
CG17807,1,-2.78,-0.399,
Pdh,1,-0.197,-2.44,0.111
Cpr65Av,1,0.261,1.45,
CG3199,1,2.17,1.16,
RpS14b,1,2.45,1.78,
TwdlJ,1,1.73,0.0741,
hdm,1,0.358,-1.2,
CG4950,1,-3.03,1.72,
CG5348,1,-1.02,0.27,
CG32344,1,-0.692,0.00845,
CG10809,1,-1.21,-2.92,
Ufc1,1,-0.406,0.0915,
cype,1,1.34,3.04,
CG18586,1,0.469,0.388,
Hsdl2,1,1.02,,
ImpE1,1,-0.213,-0.445,
ImpE1,2,0.164,0.782,
CngA,1,0.0625,-1.55,
CngA,2,0.329,1.36,
CG14989,1,0.547,0.181,
Six4,1,-1.12,0.627,
Zw,1,-0.702,-0.0188,
CG13326,1,0.0613,-3.19,
hpRNA:CR32205,1,-0.474,-0.288,
cGlr1,1,0.379,,
Xpc,1,-1.34,,
CG3526,1,1.12,0.0327,
CG3526,2,-1.1,0.0016,
CR40441,1,-3.44,2.42,

Part of the list above, limited to “droplet/nuclear area B-score, replicate 2”:
Pdh	-2.44
Cpr65Av	1.45
CG3199	1.16
RpS14b	1.78
